Results from publication PMC3574224, “Na^+ Regulation in the Malaria Parasite Plasmodiumfalciparum Involves the Cation ATPase PfATP4 and Is a Target of the Spiroindolone Antimalarials” (Cell Host & Microbe, 2013).

System: P. falciparum 3D7 trophozoites
Type: cell-based, Plasmodium falciparum
Experimental: P. falciparum strains 3D7, Dd2, NITD609-R^Dd2 clone #2, Dd2^attB, and Dd2^attB CAM I398F/P990R were cultured under shaking conditions as described elsewhere ([Allen and Kirk, 2010]). Cultures were synchronized 24 hr before experimentation using 5% w/v sorbitol ([Lambros and Vanderberg, 1979]). All experiments were conducted on mature trophozoite-stage parasites (36–40 hr postinvasion) functionally isolated from their host erythrocytes by permeabilization of the erythrocyte and parasitophorous vacuole membranes by brief exposure to saponin (0.05% w/v) as described previously ([Spillman et al., 2008]). After saponin isolation, parasites remained intact and able to generate and maintain transmembrane ion gradients ([Saliba and Kirk, 1999]; [Spillman et al., 2008]) as well as maintain a large inwardly negative membrane potential ([Allen and Kirk, 2004]).
The [Na^+]i of saponin-isolated parasites was measured at 37°C using the Na^+-sensitive dye SBFI (Molecular Probes, Invitrogen) in conjunction with a PerkinElmer LS 50B Fluorescence Spectrometer fitted with a Dual Excitation Fast Filter. […] The dye-loaded cells were excited at 340 nm and 380 nm with fluorescence recorded at 490 nm. Calibration of the relationship between the 340/380 nm fluorescence ratio and [Na^+]i (see Figures S1A–S1C) was carried out as described previously ([Diarra et al., 2001]; [Harootunian et al., 1989]). […]

## NS(=O)(=O)c1cc(C(=O)O)c(NCc2ccco2)cc1Cl [Furosemide, reference compound]
  Increase in [Na^+]i: 2.3 ± 0.7 mM
